# Measurements: PubChem BioAssay AID1347426 (Functional Genomics Laboratory (NCATS/FGL), 2020)
# In all, about 31,000 sequences went through this assay and about 1,400 (4.5%) were called active.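 How the source made its calls: active means median seed-adjusted z-score above 1 or below -1; inactive means the rest.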 This is one part of the list.
# Assay: Novel Modifiers of Survival Motor Neuron (SMN) Protein: Gene Identification via Genome-wide siRNA Screen;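 further: luminescence tracks full-length SMN protein made from the SMN2 reporter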
# Conditions: HEK293T SMN2-luciferase reporter, siRNA knockdown, 72 h; actives lie on both sides
# Outline: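 Steps: spot 1 pmol siRNA, add Lipofectamine RNAiMax in serum-free DMEM, seed HEK293T SMN2–luciferase reporter cells; incubate 72 h at 37 °C; add ONE-Glo; normalize luminescence to control siRNA, log10, MAD. Candidates: |MAD| > 1.0.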
row,Sequence,median seed-adjusted z-score
1,GGCCUACAGAUGACAUACATT against THADA,inactive: 0.00995
2,GAAAGGAUAUGGAUAUAAATT against PPIC,inactive: 0.0824
3,CAACCAUCGAGCAAAUGAATT against MAPK1,inactive: 0
4,GAGUUAUUCCGGGUACAUATT against LEF1,inactive: 0.808
5,CCUGAUCUCAAUACCUAUATT against CPN1,inactive: 0.17
6,GCGUAGCUGUUAACAAGCUTT against MAP3K11,inactive: 0.773
7,GCAGUUUGCGUUUUGAAAGTT against NSUN5C,inactive: -0.153
8,CGAGUUAGCAAGUUCAGCATT against CTRL,inactive: 0.0758
9,GGAUCCUAAACUAUCCCAATT against HARS,inactive: -0.722
10,CGGCGGAGUUUAUAGAUAATT against BCKDHA,inactive: -0.299
11,AGAUAACAUGAGUAUUGUATT against PPM1B,inactive: 0
12,AUGUAAAAUUGGUAACUAATT against ADH1B,inactive: 0.325
13,GGACAGGUGGAAUAACACUTT against GLS,inactive: 0
14,GAAUGCCUUGAGAAGAGUATT against RFC5,inactive: -0.644
15,GGUUCCCUGUGUUUUGAUUTT against FASTK,inactive: 0.306
16,GAUCCUACGCUAUGGAGUATT against ERG,inactive: 0.629
17,CCAUGACCUCGUUAGAGUATT against MRAS,inactive: 0.032
18,GCAUUGGUAAAAUUGCUAATT against AVIL,inactive: -0.127
19,GCAAGCCCGUUAAAUAAUUTT against FXYD3,inactive: 0.254
20,GCAUGAGCAUUUCAAGUAUTT against ENOSF1,inactive: 0.496
21,GGGUCCGACUAAUAAGACATT against MTR,inactive: -0.0696
22,UCAGCAAUCUGACUCUGAATT against LY9,inactive: 0.228

row,Sequence,median seed-adjusted z-score
1,UGAUAUCGGCUACGUCAAATT against NAGK,inactive: 0.446
2,ACAAAUAAGAAGAUCAUCATT against AHSA2,inactive: -0.881
3,GCUGUGUGAUGUAGACCAATT against ZNF580,inactive: 0.437
4,GCUCAAUGCAGGUAUUCAATT against KLF8,inactive: 0.0976
5,CGCCUGAUAUUGAAGUAAATT against ARX,inactive: 0.756
6,GCAUCCUACCCGUUCCAUATT against MSX2,inactive: -0.406
7,CCAAUACUAACAUCUUCAATT against MCART1,inactive: -0.605
8,UGCGUUUUCUGAUAACUCATT against PTP4A2,active: -1.45
9,GGACCUGAACUACUGCACATT against DLL1,inactive: 0
10,AGCUUGAAAAGUAAUGGAATT against SPINK7,inactive: -0.409
11,GUACAGCUCUUAUCGUUCATT against PPRC1,inactive: 0
12,CGACAUAACUUACGACAAATT against KIF23,inactive: -0.449
13,GGUGCAGAGGUCUACCAUATT against ENO2,inactive: 0.418
14,GGCUGCCCAUGGUACUCAATT against IMP5,inactive: 0.559
15,GAGACGAGGGUGAUCGGAATT against RASL10B,inactive: -0.377
16,CAUUCGCUCUCAUACUGGATT against CTCF,inactive: -0.0821
17,ACAUCAUCCACUCACUAAATT against FADS1,inactive: -0.905
18,GGAGAAUGGAUAAGGCAAATT against BCL2A1,inactive: 0.0557
19,CCCUUACUCUCCAAAAAUUTT against USF2,inactive: 0.352
20,GAUGGUGUAUGUACAAAGATT against ZNF543,inactive: 0
21,CAAUGUAUCCUCACCCUUATT against RAB30,inactive: 0.395
22,CAUCGGUAAUUAUCAUCAUTT against UBR3,inactive: -0.894

row,Sequence,median seed-adjusted z-score
1,GAGACUCUUUGAAAGUAAATT against ZNF433,inactive: 0
2,GAGCAUGUAUGAAAACCGATT against MAGI1,inactive: 0
3,GGAGCUGGACAGCAGGUUATT against GPR84,inactive: 0.285
4,GCCUGUUCCUGCUUCGAUATT against TRIM33,inactive: 0.316
5,ACAAAAAGGGCAUACAUUATT against S100A7A,inactive: 0.212
6,UGACCUCUAUGAGCAGUUUTT against ACTRT1,inactive: 0
7,GACCCAACAUAGAACUCCATT against KLRD1,inactive: 0.876
8,GGAGUUGAUUUUAUGAUUATT against RAB30,inactive: 0.395
9,GGAAAUAAGACUCAAGUUATT against GTF2A1,inactive: -0.0209
10,GGCUAUAGGUCUAGUGCUATT against RIMS1,inactive: 0
11,GAAAGAAUGCCGAAGAGUUTT against UBE2L6,inactive: -0.455
12,UCAUGACUACUUUCCCGAATT against NSFL1C,inactive: -0.0899
13,CUCUUCACGUCUGACCUGATT against HTR6,inactive: -0.463
14,GAACGUGGGCGACAAGAAATT against COMT,inactive: -0.0808
15,GCUCGGAGAAGAGAACAAATT against CHERP,inactive: 0.155
16,CUCCACAUGUAAUCCGUUATT against TAAR2,inactive: 0.137
17,UCAAUGCCUCCUUAAUUUUTT against ZNF321,inactive: -0.642
18,GAGACACGCUUCACAUACATT against FKBP11,inactive: -0.085
19,CGAGAAUUACGUUCCUACATT against RND3,inactive: -0.132
20,GGAUCAAGAGAAAUAUGGATT against ARHGAP12,inactive: 0.525
21,GGCUUAUGGAGGACCCUAUTT against NCOR1,inactive: 0.0767
22,CCCAUAAUGUUGCUAGACUTT against ABCA13,inactive: 0.238

# A few values from above.
# Under median seed-adjusted z-score, GAGACUCUUUGAAAGUAAATT against ZNF433 is entered as inactive: 0
# Under median seed-adjusted z-score, CUCCACAUGUAAUCCGUUATT against TAAR2 is entered as inactive: 0.137
# Under median seed-adjusted z-score, CGAGAAUUACGUUCCUACATT against RND3 is entered as inactive: -0.132
# Under median seed-adjusted z-score, GACCCAACAUAGAACUCCATT against KLRD1 is entered as inactive: 0.876
# Under median seed-adjusted z-score, GGAUCAAGAGAAAUAUGGATT against ARHGAP12 is entered as inactive: 0.525
# Under median seed-adjusted z-score, GGCUUAUGGAGGACCCUAUTT against NCOR1 is entered as inactive: 0.0767
# Under median seed-adjusted z-score, GAGACACGCUUCACAUACATT against FKBP11 is entered as inactive: -0.085

# Carrying on:

row,Sequence,median seed-adjusted z-score
1,GACAGAAGAUUCAAUAAGATT against CLNS1A,inactive: 0.232
2,CAACAACACCUGUUGCUUUTT against RGS17,inactive: -0.627
3,GAGUCCAACUGUCACCGGATT against HGFAC,inactive: 0.021
4,CCAAGCCUGCUUAUAGUAATT against GLRA2,inactive: -0.927
5,GGCGAUAGAUGGUAAUGUATT against ZEB1,inactive: -0.163
6,CAGUCAAGGUGAUCAACCATT against USP10,inactive: 0.182
7,CCUCAUUGCAUACUACAAATT against BAZ1B,inactive: 0.00593
8,CUACUGAGAUUAAACGGGATT against GULP1,inactive: -0.0337
9,CUUCGAGUGUGACAUCUGUTT against ZNF581,inactive: 0.486
10,CCUCAACUCUAAAUACUCATT against ZNF716,inactive: 0
11,GGAGUACAAUGUUCGUGUATT against CSNK2A2,inactive: -0.155
12,CAAUUGCUGUAGAUAGGUUTT against NPFFR2,inactive: 0.0554
13,GGCGAAAUCGGACAAUUGATT against NDUFS2,inactive: -0.388
14,GAACUAAGCACUACUCUAATT against DRP2,inactive: -0.0555
15,AGGUGAACAUGAUUAAAGATT against BTF3L4,inactive: 0.143
16,GGCAAGUCUAAUUCUAUUATT against RGS12,inactive: 0.404
17,GGGAUAAAAGAAUACUUCATT against MORF4,inactive: 0.0121
18,GCAUUAGGAAGAAGCCCAATT against SLC16A3,inactive: -0.353
19,GGAAAUCAUUCGCAACAAATT against LRP4,inactive: -0.00798
20,GGUCCCGGUUUAUAUCUAUTT against HDAC8,inactive: 0.835
21,GCAACAAGUUCAUAGCCUATT against VPS11,inactive: 0
22,GGCUAGUACGUGAAGAGUUTT against PKD2,inactive: 0.219

row,Sequence,median seed-adjusted z-score
1,GAUCUACCCUGCUCACGAUTT against ETHE1,inactive: 0
2,GGUGGAACUCUUCAACUUUTT against PHOSPHO2,inactive: -0.247
3,CUGCAUUUGCUACACCCUUTT against COX7C,inactive: -0.461
4,CGGCAUUACCUUUUCUACATT against LPCAT3,inactive: -0.388
5,CUUUGGUUGAAGAAAGUAATT against TRMT6,inactive: 0.069
6,GCAAGGAUAUGUACCAGAUTT against AGXT,inactive: 0.017
7,GCAACUCUUGAUGACAUAATT against SSB,inactive: 0
8,GUAUGGUCGGUUUACAAUATT against YES1,inactive: -0.508
9,AGUGGGACGUGUUUUCCGATT against STX11,inactive: -0.518
10,GAACUAGCUUGUUUUGACATT against KLF15,inactive: -0.45
11,GACAGGUAGUGAUCGCAUUTT against HERC4,inactive: 0.00343
12,UGAGGAUAGUGGGUCUGUATT against MEIS3,inactive: 0.207
13,GCUUCAUCCUGCACAAUAATT against PTGDS,inactive: 0.48
14,CAAGGCAUGUACAAAGAAATT against FPR1,inactive: 0.0229
15,GUAUGUCACAAAUCCUUCATT against ZFP28,inactive: 0.275
16,GGAUCUGACUAUUCGCACUTT against LRIG2,inactive: 0.386
17,CAACUUCGCUCCGUACUUUTT against CH25H,inactive: -0.264
18,CAACGACCGGAGGUAUAAATT against BPGM,inactive: 0.408
19,CACUCGUAAUACCCUUAAATT against GGPS1,inactive: -0.372
20,GGUUUAUCUUUGAAGACCATT against SLC4A1,inactive: -0.861
